Results published in US20040259848A1.
These are yes or no findings as the source states them, for the method shown. Some results given as binding are weak or reduced against the parent protein; the word gives no strength. Sequences can lack the tags named with a protein.

Target: Saccharomyces cerevisiae ketol-acid reductoisomerase, "short" form (construct no. 1), mature protein without the transit peptide, overproduced in E. coli (Saccharomyces cerevisiae) (UniProt P06168)
Test: gel filtration on Superdex 75; single peak estimated at 67 kDa (monomer about 40 kDa, dimer 80 kDa)

binding: binds
B1: Saccharomyces cerevisiae ketol-acid reductoisomerase, "short" form (construct no. 1), mature protein without the transit peptide, overproduced in E. coli (enzyme)
chain: LKQINFGGTVETVYERADWPREKLLDYFKNDTFALIGYGSQGYGQGLNLRDNGLNVIIGVRKDGASWKAAIEDGWVPGKNLFTVEDAIKRGSYVMNLLSDAAQSETWPAIKPLLTKGKTLYFSHGFSPVFKDLTHVEPPKDLDVILVAPKGSGRTVRSLFKEGRGINSSYAVWNDVTGKAHEKAQALAVAIGSGYVYQTTFEREVNSDLYGERGCLMGGIHGMFLAQYDVLRENGHSPSEAFNETVEEATQSLYPLIGKYGMDYMYDACSTTARRGALDWYPIFKNALKPVFQDLYESTKNGTETKRSLEFNSQPDYREKLEKELDTIRNMEIWKVGKEVRKLRPENQ
